This experiment concerns the target T1, megakaryocytic leukemia 1, Flag-tagged (pcDNA3.1-C3Flag-MKL1) (UniProt Q8K4J6).
T1 sequence: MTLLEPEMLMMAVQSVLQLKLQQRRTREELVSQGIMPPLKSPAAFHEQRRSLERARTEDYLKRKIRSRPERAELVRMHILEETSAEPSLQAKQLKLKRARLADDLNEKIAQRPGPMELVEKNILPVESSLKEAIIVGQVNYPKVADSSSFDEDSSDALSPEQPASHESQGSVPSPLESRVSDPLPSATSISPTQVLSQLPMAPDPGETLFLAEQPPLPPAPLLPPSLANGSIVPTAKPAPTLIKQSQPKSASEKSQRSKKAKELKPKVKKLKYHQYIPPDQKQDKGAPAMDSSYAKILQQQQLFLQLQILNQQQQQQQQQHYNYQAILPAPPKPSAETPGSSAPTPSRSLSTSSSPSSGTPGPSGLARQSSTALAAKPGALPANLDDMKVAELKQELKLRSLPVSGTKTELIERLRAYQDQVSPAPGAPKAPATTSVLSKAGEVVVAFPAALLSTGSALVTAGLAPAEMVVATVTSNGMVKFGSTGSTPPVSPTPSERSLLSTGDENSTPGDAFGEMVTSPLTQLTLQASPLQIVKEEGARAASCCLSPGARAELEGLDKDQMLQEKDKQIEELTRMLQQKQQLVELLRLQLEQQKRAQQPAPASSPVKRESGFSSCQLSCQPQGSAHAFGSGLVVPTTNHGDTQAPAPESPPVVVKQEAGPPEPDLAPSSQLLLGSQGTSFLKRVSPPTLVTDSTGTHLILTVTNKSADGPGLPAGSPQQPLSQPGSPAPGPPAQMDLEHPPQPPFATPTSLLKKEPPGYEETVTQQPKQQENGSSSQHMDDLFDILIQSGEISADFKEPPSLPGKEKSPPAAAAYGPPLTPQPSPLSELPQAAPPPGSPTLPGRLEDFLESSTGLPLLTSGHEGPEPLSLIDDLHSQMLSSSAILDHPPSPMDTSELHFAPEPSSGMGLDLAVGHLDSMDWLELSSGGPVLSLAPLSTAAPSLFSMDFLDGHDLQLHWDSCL
Description: co-IP; 293T cells co-transfected with His-p38α and/or Flag-MKL1 plasmids for 48 h; whole cell lysates; Flag-bead pulldown (Immunoprecipitation Kit, Proteintech); western blot. (In general: Immunoblotting shows a protein as a band on a membrane.)

Amino acid sequences for entries named in this document (tags omitted).
UniProt P47811: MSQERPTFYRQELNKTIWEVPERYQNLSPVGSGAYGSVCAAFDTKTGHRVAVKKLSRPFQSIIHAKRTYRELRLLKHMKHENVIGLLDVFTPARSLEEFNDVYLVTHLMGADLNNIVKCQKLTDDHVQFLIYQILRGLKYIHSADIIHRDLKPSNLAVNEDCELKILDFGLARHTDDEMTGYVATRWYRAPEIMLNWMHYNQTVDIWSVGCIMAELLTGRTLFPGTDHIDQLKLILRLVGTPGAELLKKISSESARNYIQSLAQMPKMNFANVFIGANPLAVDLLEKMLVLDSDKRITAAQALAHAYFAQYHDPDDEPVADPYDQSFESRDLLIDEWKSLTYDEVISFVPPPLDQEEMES

Experimental findings from paper PMC7658717 are described below.

These are yes or no findings as the source states them, for the method shown. In cells and extracts the contact can be indirect. Some results given as binding are weak or reduced against the parent protein; the word gives no strength. Tags and fused reporters may be left off the sequences shown.

For the substance “p38α mitogen-activated protein kinase, His-tagged (pcDNA3.1-V5/hisB-p38α) (from UniProt P47811 1-360) (enzyme)”, the binding entry is on record as “binds”.
